PubChem BioAssay AID504786 – Drosophila RNAi Screening Center | 2011

Aim: 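Fly genes required for HIF-dependent transcription when hypoxia is mimicked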 (primary screen)
System: Drosophila S2 cells with a stable HIF luciferase reporter
Reagent: long dsRNA against Drosophila genes, about 0.2 µg dsRNA per well of a 384-well plate
Time to read-out: three days of knock-down, then 20 h of DFO before reading
Treatment: desferrioxamine (DFO) at 100 µM, an iron chelator that mimics hypoxia, for 20 h
Measured: 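HIF reporter luminescence in cells given 100 µM DFO for 20 h, using the mouse ldh-a hypoxia-response element, scored as per-plate z-scores; higher means greater loss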
Direction: z-score: higher = stronger loss of HIF reporter signal
The deposit covers about 21,000 reagents; shown is a random part of those with a known target gene and a result. 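Primary screen; positive scores mean lost reporter signal, so the sign may be inverted from the usual convention.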 The numbers tell different reagents against one gene apart. A plus sign joins genes that one reagent is predicted to hit. Further read-outs or replicates are left out here.

no.	gene knocked down	dsRNA no.	z-score, replicate 1	z-score, replicate 2
1	CG13794 (GeneID 34048)	1	-0.2	-0.2
2	Gpo1 (GeneID 47611)	1	-0.2	-0.4
3	NPF (GeneID 42018)	1	-0.8	-0.8
4	CG4577 (GeneID 33291)	1	-0.3	0.1
5	gus (GeneID 35478)	1	-0.2	-0.2
6	gus (GeneID 35478)	2	0	0.2
7	Tsp42Er (GeneID 35629)	1	-0.4	-0.4
8	CG32196 (GeneID 317908)	1	0.7	0
9	CG2983 (GeneID 33485)	1	-0.1	0.6
10	sv (GeneID 43825)	1	-0.3	0
11	Gycalpha99B (GeneID 43493)	1	-0.3	0
12	CG1371 (GeneID 36053)	1	-0.3	0.6
13	GIIIspla2 (GeneID 31747)	1	-0.2	-0.5
14	Rack1 (GeneID 34070)	1	-0.5	-0.9
15	betaGlu (GeneID 43746)	1	-0.2	0
16	Gbeta5 (GeneID 31744)	1	-0.3	0
17	Slc45-1 (GeneID 39055)	1	-0.2	-0.6
18	Vps15 (GeneID 41096)	1	-0.3	-0.6
19	CG8180 (GeneID 36713)	1	-0.1	-0.4
20	CG8180 (GeneID 36713)	2	1.2	1.8
21	CG18809 (GeneID 59170)	1	0.5	0.1
22	CG3795 (GeneID 31128)	1	-0.2	-0.9
23	CG17186 (GeneID 42363)	1	-0.4	-0.2
24	St2 (GeneID 41098)	1	-0.4	-0.2
25	Spase22-23 (GeneID 42885)	1	-0.6	0
26	lds (GeneID 45894)	1	-0.2	-0.1
27	CG31464 (GeneID 318749)	1	-0.1	-0.2
28	CG18223 (GeneID 40068)	1	0	0
29	Smn (GeneID 39844)	1	-0.1	0.1
30	Spt20 (GeneID 39522)	1	0.2	-0.6
31	His1:CG33816 + His1:CG33828 + His1:CG33819 + 21 more	1	0	0.6
32	Hip1 (GeneID 39450)	1	-0.4	-0.8
33	trbl (GeneID 43999)	1	-0.3	-0.4
34	slou (GeneID 42547)	1	-0.3	0
35	Cad96Ca (GeneID 43026)	1	-0.4	-0.6
36	Cad96Ca (GeneID 43026)	2	-0.2	-0.7
37	CG17260 (GeneID 33519)	1	-0.3	-0.4
38	CG5070 (GeneID 32705)	1	-0.3	-0.5
39	CG32236 (GeneID 249170)	1	-0.5	0.8
40	CG34302 (GeneID 5740537)	1	-0.2	-0.4
41	ouib (GeneID 41039)	1	-0.3	-0.3
42	AdamTS-B (GeneID 31490)	1	-0.4	-0.5
43	qsm (GeneID 47065)	1	-0.7	-0.2
44	qsm (GeneID 47065)	2	-0.3	0.1
45	ergic53 (GeneID 44679)	1	-0.3	0.7
46	CG14258 (GeneID 43260)	1	-0.4	-0.6
47	CG3703 (GeneID 31045)	1	-0.4	-0.4
48	CG3703 (GeneID 31045)	2	-0.2	-0.1
49	CG3703 (GeneID 31045)	3	-0.2	-0.7
50	CG14567 (GeneID 40420)	1	-0.3	-0.2
51	Uxs (GeneID 38911)	1	-0.3	0
52	CG8248 (GeneID 35888)	1	-0.3	-0.3
53	dom (GeneID 45655)	1	2	2.1
54	dom (GeneID 45655)	2	0	1.2
55	CG13409 (GeneID 42592)	1	0.2	-0.1
56	Sk1 (GeneID 32089)	1	-0.1	0.6
57	Spred (GeneID 36643)	1	-0.4	-0.2
58	wds (GeneID 53428)	1	-0.1	1.4
59	CG5746 (GeneID 42903)	1	0.3	0.7
60	CG13681 (retired record) (GeneID 38892)	1	-0.1	0.5
61	CG13681 (retired record) (GeneID 38892)	2	-0.2	0.6
62	CG13681 (retired record) (GeneID 38892)	3	-0.3	0
63	CG13681 (retired record) (GeneID 38892)	4	-0.4	0.3
64	CG13681 (retired record) (GeneID 38892)	5	-0.1	0.3
65	CG13681 (retired record) (GeneID 38892)	6	0	0
66	CG6790 (GeneID 41388)	1	-0.3	-0.3
67	CG18493 (GeneID 42319)	1	-1	-0.2
68	CG14502 (GeneID 37092)	1	-0.2	-0.5
69	CadN (GeneID 35070)	1	-0.2	-0.5
70	BNIP3 (GeneID 40278)	1	-0.2	-0.3
71	CG4537 (GeneID 34306)	1	-0.3	-0.7
72	Coop (GeneID 35677)	1	-0.1	0
73	CG8586 (GeneID 35854)	1	-0.3	-0.5
74	mRpS17 (GeneID 37872)	1	1	1.2
75	RhoGAP71E (GeneID 39693)	1	-0.1	0
76	RhoGAP71E (GeneID 39693)	2	1.4	0.4
77	RhoGAP71E (GeneID 39693)	3	0	0.2
78	CG10919 (GeneID 40917)	1	-0.2	-0.5
79	Lint-O (GeneID 31254)	1	-0.3	-0.6
80	CG18823 (GeneID 59184)	1	-0.4	-0.6
81	eIF5B (GeneID 44261)	1	0.2	0.4
82	eIF5B (GeneID 44261)	2	0.7	1.7
83	TwdlK (GeneID 43205)	1	2.4	0.9
84	CG10834 (GeneID 35438)	1	-0.1	-0.2
85	CG42818 + Ca-Ma2d	1	-0.4	0.4
86	obe (GeneID 41891)	1	-0.2	-0.3
87	Mgat1 (GeneID 37323)	1	-0.2	0.2
88	CG14840 (GeneID 41734)	1	0	-0.2
89	DIP-delta (GeneID 5740816)	1	0.3	-0.7
90	DIP-delta (GeneID 5740816)	2	-0.4	0
91	Ubc87F (GeneID 41682)	1	-0.4	-0.7
92	Pomp (GeneID 35342)	1	9.5	6.7
93	GluRIB + CG42509 (retired record)	1	-0.3	0
94	GluRIB + CG42509 (retired record)	2	-0.2	0.4
95	Setx (GeneID 38904)	1	0.1	0.7
96	CG9962 (GeneID 33448)	1	-0.2	-0.3
97	CG2614 (GeneID 35326)	1	-0.3	-0.2
98	Tango11 (GeneID 246596)	1	-0.1	-0.4
99	Tango11 (GeneID 246596)	2	0.4	0.5
100	Hydr2 (GeneID 33532)	1	-0.3	-1
101	Sas10 (GeneID 31447)	1	-0.1	1.4
102	Mal-B1 (GeneID 34597)	1	-0.1	-0.2
103	CG7409 (GeneID 38870)	1	-0.2	0
104	CG6178 (GeneID 42867)	1	-0.3	-0.3
105	CG13442 (GeneID 37349)	1	-0.3	-0.1
106	ppk29 (GeneID 37844)	1	0	0

No new results follow: entries from further up.
no.	gene knocked down	dsRNA no.	z-score, replicate 1	z-score, replicate 2
6	gus (GeneID 35478)	2	0	0.2
7	Tsp42Er (GeneID 35629)	1	-0.4	-0.4
8	CG32196 (GeneID 317908)	1	0.7	0
9	CG2983 (GeneID 33485)	1	-0.1	0.6
10	sv (GeneID 43825)	1	-0.3	0
11	Gycalpha99B (GeneID 43493)	1	-0.3	0
12	CG1371 (GeneID 36053)	1	-0.3	0.6
13	GIIIspla2 (GeneID 31747)	1	-0.2	-0.5
14	Rack1 (GeneID 34070)	1	-0.5	-0.9
15	betaGlu (GeneID 43746)	1	-0.2	0
16	Gbeta5 (GeneID 31744)	1	-0.3	0
17	Slc45-1 (GeneID 39055)	1	-0.2	-0.6
18	Vps15 (GeneID 41096)	1	-0.3	-0.6
